Experiment: Organic solar cell performance with the fullerene as electron acceptor in the active layer, ITO/PEDOT/Active layer/LiF/Al
Conditions: area 0.16 cm^2

| SMILES | FF (Donor P3HT) | Jsc (Donor P3HT) | PCE (Donor P3HT) | Voc (Donor P3HT) | FF (Donor PCDTBT) | Jsc (Donor PCDTBT) | PCE (Donor PCDTBT) | Voc (Donor PCDTBT) | FF (Donor PTB7) | Jsc (Donor PTB7) | PCE (Donor PTB7) | Voc (Donor PTB7) |
| --- | --- | --- | --- | --- | --- | --- | --- | --- | --- | --- | --- | --- |
| Cc1cccc(C)c1C(=O)OC12c3c4c5c6c7c8c(c9c%10c1c1c%11c3c3c%12c4c4c6c6c7c7c%13c8c9c8c9c%10c1c1c%10c%11c3c3c%11c%12c4c4c6c6c7c7c%13c8c8c9c1c1c%10c3c3c%11c4c6c4c7c8c1c34)C52O[Si](C)(C)c1ccccc1 (stereo not shown) [Formula 1a] | 30.4% | 5.62 mA/cm^2 | 0.8% | 0.46 V | 42.7% | 9.22 mA/cm^2 | 3.3% | 0.84 V | 34.7% | 11.7 mA/cm^2 | 2.4% | 0.59 V |
| CCCC[Si](C)(C)OC12c3c4c5c6c7c8c(c9c%10c1c1c%11c3c3c%12c4c4c6c6c7c7c%13c8c9c8c9c%10c1c1c%10c%11c3c3c%11c%12c4c4c6c6c7c7c%13c8c8c9c1c1c%10c3c3c%11c4c6c4c7c8c1c34)C52OC(=O)c1c(C)cccc1C (stereo not shown) [Formula 1c] | – | – | – | – | 38.2% | 8.97 mA/cm^2 | 2.6% | 0.76 V | – | – | – | – |

Reference: US20160039676A1, “Fullerene Derivatives and Their Applications in Organic Photovoltaics” (Nano and Advanced Materials Institute Limited, priority 2014, published 2016)
